Laboratory results: PubChem BioAssay AID720505 (Drosophila RNAi Screening Center, 2013)
Screen: 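Genes needed for store-operated calcium entry in fly cells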 (primary screen). System: Drosophila S2R+ cells. Reagent: long dsRNA against Drosophila genes. Conditions: thapsigargin (2 µM) in calcium-free buffer to empty internal stores, then 2 mM calcium added back. Measurement: 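Stores emptied by 2 µM thapsigargin without calcium, then 2 mM calcium re-added; fluo-4 fluorescence followed by FLIPR in 384-well plates, per-well averaged endpoint, raw; two screen passes, some wells retested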. Scale: calcium signal: higher = more calcium entry after store depletion. Hit rule: 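About 1500 genes called as lowering calcium entry, by varying amounts, judged against per-plate control wells with STIM1 as positive and Rho1 as negative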. Meaning of the calls: active = called as lowering calcium entry; inactive = not called.
The screen tested about 20,000 reagents; shown is a random part of those with a known target gene and a result. Over the whole deposit, about 2,100 (10%) are marked active. 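Raw plate signals without normalisation; calls rest on control-based scores that were not deposited; replicate 2 separates called from uncalled poorly.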 Unmarked entries are inactive. Names joined by + are all predicted targets of the reagent. Reagent sequences are not shown. The record does not give: the amount of reagent, the time to read-out.

{"target":"Rab4 + CG42239","amplicon":"DRSC05667","calcium signal, replicate 1":132,"calcium signal, replicate 2":89}
{"target":"CG32547","amplicon":"DRSC19263","calcium signal, replicate 1":62.8,"calcium signal, replicate 2":76.3}
{"target":"CG32547","amplicon":"DRSC19265","calcium signal, replicate 1":64.2,"calcium signal, replicate 2":69.8}
{"target":"CG32547","amplicon":"DRSC19474","calcium signal, replicate 1":86.7,"calcium signal, replicate 2":119}
{"target":"CG32547","amplicon":"DRSC19626","calcium signal, replicate 1":98.6,"calcium signal, replicate 2":116}
{"target":"CG5033","amplicon":"DRSC07410","calcium signal, replicate 1":155,"calcium signal, replicate 2":132}
{"target":"para","amplicon":"DRSC19141","calcium signal, replicate 1":96.4,"calcium signal, replicate 2":112}
{"target":"para","amplicon":"DRSC20360","calcium signal, replicate 1":105,"calcium signal, replicate 2":97.3}

2 neighbouring reagents already listed:
{"target":"CG32547","amplicon":"DRSC19265","calcium signal, replicate 1":64.2,"calcium signal, replicate 2":69.8}
{"target":"CG32547","amplicon":"DRSC19474","calcium signal, replicate 1":86.7,"calcium signal, replicate 2":119}

The list goes on:
{"target":"temp","amplicon":"DRSC18271","calcium signal, replicate 1":99,"calcium signal, replicate 2":175}
{"target":"CG7742","amplicon":"DRSC03066","calcium signal, replicate 1":110,"calcium signal, replicate 2":255}
{"target":"Sms","amplicon":"DRSC10408","calcium signal, replicate 1":114,"calcium signal, replicate 2":93.5}
{"target":"CG17191","amplicon":"DRSC15185","calcium signal, replicate 1":149,"calcium signal, replicate 2":95.9}
{"target":"CG6168","amplicon":"DRSC10596","calcium signal, replicate 1":71.2,"calcium signal, replicate 2":111}
{"target":"Vha14-2","amplicon":"DRSC12145","calcium signal, replicate 1":100,"calcium signal, replicate 2":134}
{"target":"NSD","amplicon":"DRSC15691","calcium signal, replicate 1":121,"calcium signal, replicate 2":124}
{"target":"PpD3","amplicon":"DRSC16796","calcium signal, replicate 1":136,"calcium signal, replicate 2":87.4}
{"target":"euc","amplicon":"DRSC14492","calcium signal, replicate 1":128,"calcium signal, replicate 2":94.7}
{"target":"Cyp4p3","amplicon":"DRSC07374","calcium signal, replicate 1":128,"calcium signal, replicate 2":120}
{"target":"agt","amplicon":"DRSC12611","calcium signal, replicate 1":152,"calcium signal, replicate 2":180}
